Assay [1] deals with endogenous ORAI1 (human (endogenous in U2OS)) (UniProt Q96D31). Put plainly: co-IP; endogenous ORAI1 immunoprecipitated from 0.5 mg clarified U2OS lysate with anti-ORAI1 antibody covalently conjugated to agarose beads, 1 h at 4 °C; washed with lysis buffer containing 0.15 M NaCl and 50 mM Tris-HCl, 0.1 mM EGTA, pH 7.5; CTTN detected by immunoblot; preimmune serum and agarose beads as negative control. (Immunoblotting shows a protein as a band on a membrane.)

Amino acid sequences for entries named in this document (tags omitted).
UniProt Q96D31: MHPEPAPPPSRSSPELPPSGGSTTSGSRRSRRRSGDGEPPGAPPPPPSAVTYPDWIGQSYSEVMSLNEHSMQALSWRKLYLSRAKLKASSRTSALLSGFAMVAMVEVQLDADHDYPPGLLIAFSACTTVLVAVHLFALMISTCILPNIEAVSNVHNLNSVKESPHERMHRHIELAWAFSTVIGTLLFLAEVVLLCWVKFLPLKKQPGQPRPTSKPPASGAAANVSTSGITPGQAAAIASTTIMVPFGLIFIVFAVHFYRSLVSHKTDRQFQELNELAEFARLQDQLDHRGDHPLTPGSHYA
UniProt Q14247: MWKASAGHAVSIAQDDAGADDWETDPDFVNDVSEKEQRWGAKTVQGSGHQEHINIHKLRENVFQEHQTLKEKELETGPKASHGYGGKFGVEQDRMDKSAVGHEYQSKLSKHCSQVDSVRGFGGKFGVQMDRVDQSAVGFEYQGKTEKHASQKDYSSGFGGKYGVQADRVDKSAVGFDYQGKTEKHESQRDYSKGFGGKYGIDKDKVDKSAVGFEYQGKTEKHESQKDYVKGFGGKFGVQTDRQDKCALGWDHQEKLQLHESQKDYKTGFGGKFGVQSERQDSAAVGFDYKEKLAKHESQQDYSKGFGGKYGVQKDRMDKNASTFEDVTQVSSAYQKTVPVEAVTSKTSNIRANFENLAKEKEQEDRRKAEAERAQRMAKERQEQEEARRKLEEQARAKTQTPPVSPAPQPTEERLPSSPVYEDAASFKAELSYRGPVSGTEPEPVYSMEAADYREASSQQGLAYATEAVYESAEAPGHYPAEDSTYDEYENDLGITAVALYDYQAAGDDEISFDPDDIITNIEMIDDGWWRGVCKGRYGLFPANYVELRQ

For assay [2], the target named is ORAI1-GFP (human) (UniProt Q96D31). Put plainly: co-IP; GFP-Trap agarose beads (5 μl) added to 2.5 mg clarified lysate of U2OS cells transiently expressing GFP or ORAI1-GFP, 1 h at 4 °C; washed with lysis buffer containing 0.15 M NaCl and 50 mM Tris-HCl, 0.1 mM EGTA, pH 7.5; endogenous CTTN detected by immunoblot.

Results are given in words; binding and its absence hold for the method and conditions named. Binding seen in cells or lysates may run through a third protein. Some binding calls cover weakened binding; strength is not graded here.

Consider “endogenous cortactin (CTTN) (from UniProt Q14247 1-550)”, for which the binding result in assay [1] and in assay [2] was “binds” each time.

The values are drawn from PMC5428229.
